Results are given in words; binding and its absence hold for the method and conditions named. Some results given as binding are weak or reduced against the parent protein; the word gives no strength.
Target: TetR fused to DOT1L (UniProt Q8TEK3)
Assay: TetR recruitment to a TetO array, read by ChIP-qPCR

Amino acid sequences for entries named in this document (tags omitted).
UniProt Q8TEK3: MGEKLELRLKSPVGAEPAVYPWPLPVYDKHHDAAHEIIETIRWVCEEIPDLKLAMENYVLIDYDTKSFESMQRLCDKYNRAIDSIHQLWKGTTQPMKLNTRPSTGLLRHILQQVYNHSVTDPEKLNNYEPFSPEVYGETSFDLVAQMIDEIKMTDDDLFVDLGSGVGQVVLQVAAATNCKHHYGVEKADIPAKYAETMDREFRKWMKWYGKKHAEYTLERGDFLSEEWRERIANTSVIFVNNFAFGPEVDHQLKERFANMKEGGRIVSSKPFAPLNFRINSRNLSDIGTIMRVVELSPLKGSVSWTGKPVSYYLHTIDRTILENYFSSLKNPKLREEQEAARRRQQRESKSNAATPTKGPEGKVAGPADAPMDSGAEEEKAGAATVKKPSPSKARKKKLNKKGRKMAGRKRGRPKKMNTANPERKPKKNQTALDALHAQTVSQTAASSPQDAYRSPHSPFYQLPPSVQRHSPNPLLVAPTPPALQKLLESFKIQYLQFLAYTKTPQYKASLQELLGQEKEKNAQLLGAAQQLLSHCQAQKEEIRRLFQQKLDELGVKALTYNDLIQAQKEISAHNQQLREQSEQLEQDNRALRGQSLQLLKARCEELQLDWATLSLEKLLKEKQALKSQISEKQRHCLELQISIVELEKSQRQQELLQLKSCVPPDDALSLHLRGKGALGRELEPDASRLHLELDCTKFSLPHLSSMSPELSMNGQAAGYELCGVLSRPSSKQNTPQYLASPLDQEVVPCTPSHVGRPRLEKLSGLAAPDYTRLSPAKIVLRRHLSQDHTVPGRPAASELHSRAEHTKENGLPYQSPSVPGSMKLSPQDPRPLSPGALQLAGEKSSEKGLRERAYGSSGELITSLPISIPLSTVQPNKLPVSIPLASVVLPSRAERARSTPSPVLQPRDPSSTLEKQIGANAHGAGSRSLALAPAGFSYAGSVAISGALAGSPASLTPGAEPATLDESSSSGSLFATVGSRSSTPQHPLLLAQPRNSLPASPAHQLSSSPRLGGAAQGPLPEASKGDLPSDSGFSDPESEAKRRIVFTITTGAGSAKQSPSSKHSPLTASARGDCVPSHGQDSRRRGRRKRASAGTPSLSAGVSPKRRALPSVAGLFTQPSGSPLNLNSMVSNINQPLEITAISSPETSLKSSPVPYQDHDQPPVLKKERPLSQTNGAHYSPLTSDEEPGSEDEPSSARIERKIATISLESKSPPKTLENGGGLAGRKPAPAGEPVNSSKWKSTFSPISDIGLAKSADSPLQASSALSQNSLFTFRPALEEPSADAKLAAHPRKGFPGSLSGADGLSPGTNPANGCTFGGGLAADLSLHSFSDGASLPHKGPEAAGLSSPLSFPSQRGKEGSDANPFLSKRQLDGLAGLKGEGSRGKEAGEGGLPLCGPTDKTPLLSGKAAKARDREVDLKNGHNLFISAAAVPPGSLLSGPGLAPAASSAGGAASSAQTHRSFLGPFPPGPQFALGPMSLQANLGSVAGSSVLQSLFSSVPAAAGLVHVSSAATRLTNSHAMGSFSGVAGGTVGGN

B1: ENL, endogenous in mESCs (protein, UniProt Q9ERL0 1-547)
chain: MDNQCTVQVKLELGHRAQLRKKPTTEGFTHDWMVFVRGPEQCDIQHFVEKVIFRLHDSFPKPKRVCKEPPYKVEESGYAGFIMLIEVYFKNKEEPRKVCFTYDLFLNLEGNPPVNHLRCEKLTFNNPTTEFRCKLLMAGGVMVMPEGADTVSRPSPDYPMLPTIPLSAFSDPKKNKPSHGSKDANKESGKASKPHKVAREHRERPRKDSESRSCSKEPEREPKSAKDAARKLPKEEKAPVPKAAFKEPKMALKETKLESLSPKGVPQPPTLPKASSKRPAATDSPKLSAKKPKKSGSKGTRRAPGTSPRASSFPDKKVARDKNSKGDKGKAESEPREAKRTLQTEDSNSEDEASFRSESAQSSPANASSSSDSSSDSDFEPSQNHSQGPLRSMVEDLQSEGSDEDDSSSGEENTGKANPGRESRLSFSDSESDNSADSCLPGREPLPPQKPPPPSSKVSGRRSPEPCSKPEKMLKKATYDKAYTDELVELHRRLMALRERNVLQQIVNLIEETGHFNVTNTTFDFDLFSLDESTVRKLQSCLEAVAT
Q: For B1, which binding is on record?
A: binds
